Earlier results in patent publication US20100150911A1, “METHODS AND SYSTEMS OF TREATING AGE-RELATED MACULAR-DEGENERATION” (OPTO GLOBAL HOLDINGS PTY LTD, priority 2007, published 2010).
At least one compound was matched to its structure with a doubt left.

Conditions: cited from earlier work

Structure (SMILES): C=Cc1c(C)c2cc3nc(c(CC(=O)N[C@@H](CC(=O)[O-])C(=O)[O-])c4nc(cc5[nH]c(cc1[nH]2)c(C)c5CC)C(C)=C4C(=O)[O-])[C@@H](CCC(=O)[O-])[C@@H]3C.[Na+].[Na+].[Na+].[Na+] [NPe6]
- singlet oxygen quantum: 0.77
